# Measured values as given in the supplement of paper PMC12823440, “Inhibitors supercharge kinase turnover through native proteolytic circuits” (Nature, 2025).
# By UniProt entry, the sequences of proteins in these tests, tags left out. Where a name states a change or a piece, a line headed by the entry shows the natural chain unless it says otherwise.
# UniProt P11362, whole entry, looked up: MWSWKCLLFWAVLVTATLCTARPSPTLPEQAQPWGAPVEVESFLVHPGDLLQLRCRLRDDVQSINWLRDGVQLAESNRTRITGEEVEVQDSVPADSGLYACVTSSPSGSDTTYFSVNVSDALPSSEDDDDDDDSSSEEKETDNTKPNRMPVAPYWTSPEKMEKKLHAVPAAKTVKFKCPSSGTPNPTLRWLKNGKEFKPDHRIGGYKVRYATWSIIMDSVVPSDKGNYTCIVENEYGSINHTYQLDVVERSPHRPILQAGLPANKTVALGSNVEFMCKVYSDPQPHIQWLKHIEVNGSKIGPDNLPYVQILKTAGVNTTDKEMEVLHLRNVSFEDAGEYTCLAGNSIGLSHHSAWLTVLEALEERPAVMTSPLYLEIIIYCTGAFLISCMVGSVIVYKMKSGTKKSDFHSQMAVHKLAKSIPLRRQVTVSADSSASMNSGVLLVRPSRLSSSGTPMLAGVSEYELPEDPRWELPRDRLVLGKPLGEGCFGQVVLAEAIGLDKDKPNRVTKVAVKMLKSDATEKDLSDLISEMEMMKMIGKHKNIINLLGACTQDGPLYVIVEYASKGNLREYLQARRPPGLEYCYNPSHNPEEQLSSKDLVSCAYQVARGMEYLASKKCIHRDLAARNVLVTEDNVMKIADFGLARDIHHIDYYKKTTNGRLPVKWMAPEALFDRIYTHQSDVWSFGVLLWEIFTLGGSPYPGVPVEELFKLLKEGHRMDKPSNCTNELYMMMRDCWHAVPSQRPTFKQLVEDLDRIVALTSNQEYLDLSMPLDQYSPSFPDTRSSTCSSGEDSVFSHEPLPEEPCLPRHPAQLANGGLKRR
# UniProt P21802, whole entry, looked up: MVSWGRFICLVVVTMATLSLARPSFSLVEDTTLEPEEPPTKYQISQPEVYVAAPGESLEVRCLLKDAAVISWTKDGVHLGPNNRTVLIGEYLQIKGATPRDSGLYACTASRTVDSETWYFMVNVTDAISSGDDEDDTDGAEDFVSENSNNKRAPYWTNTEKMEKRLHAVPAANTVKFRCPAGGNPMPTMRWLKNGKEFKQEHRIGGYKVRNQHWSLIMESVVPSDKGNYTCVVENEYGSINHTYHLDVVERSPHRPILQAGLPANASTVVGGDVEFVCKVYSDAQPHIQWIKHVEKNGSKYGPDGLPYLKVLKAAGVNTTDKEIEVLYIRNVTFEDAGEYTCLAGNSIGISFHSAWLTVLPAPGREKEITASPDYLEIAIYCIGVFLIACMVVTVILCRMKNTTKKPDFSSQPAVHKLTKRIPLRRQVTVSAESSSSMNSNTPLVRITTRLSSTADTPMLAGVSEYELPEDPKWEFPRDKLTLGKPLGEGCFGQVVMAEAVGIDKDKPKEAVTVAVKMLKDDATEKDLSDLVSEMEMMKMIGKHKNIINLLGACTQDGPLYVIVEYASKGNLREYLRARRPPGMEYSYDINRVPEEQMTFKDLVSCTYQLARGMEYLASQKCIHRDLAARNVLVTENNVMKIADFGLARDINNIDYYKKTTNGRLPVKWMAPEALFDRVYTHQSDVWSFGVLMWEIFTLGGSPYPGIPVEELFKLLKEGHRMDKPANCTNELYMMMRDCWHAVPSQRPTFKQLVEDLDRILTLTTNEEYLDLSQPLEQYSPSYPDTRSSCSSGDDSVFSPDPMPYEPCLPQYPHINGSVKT
# UniProt P22607, whole entry, looked up: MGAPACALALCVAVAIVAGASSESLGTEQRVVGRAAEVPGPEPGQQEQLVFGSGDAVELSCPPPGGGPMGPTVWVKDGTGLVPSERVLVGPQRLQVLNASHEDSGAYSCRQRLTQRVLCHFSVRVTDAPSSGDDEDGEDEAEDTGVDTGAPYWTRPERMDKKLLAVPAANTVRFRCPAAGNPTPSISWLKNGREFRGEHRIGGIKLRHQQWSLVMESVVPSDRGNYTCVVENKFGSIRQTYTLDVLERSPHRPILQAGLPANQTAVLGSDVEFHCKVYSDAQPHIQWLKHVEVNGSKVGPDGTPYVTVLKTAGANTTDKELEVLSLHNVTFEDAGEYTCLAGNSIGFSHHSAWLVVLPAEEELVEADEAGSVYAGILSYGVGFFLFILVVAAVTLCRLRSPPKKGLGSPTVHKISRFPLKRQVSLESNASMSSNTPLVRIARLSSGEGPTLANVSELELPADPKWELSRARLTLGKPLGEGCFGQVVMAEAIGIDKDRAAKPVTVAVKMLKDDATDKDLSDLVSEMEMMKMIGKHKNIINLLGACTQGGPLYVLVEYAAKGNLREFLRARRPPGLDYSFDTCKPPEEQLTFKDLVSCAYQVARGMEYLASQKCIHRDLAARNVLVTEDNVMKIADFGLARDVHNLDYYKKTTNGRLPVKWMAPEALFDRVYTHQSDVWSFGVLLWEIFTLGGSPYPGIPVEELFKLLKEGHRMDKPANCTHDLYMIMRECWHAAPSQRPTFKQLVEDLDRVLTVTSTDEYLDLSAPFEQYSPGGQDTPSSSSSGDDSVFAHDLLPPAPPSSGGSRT
# UniProt P36888, whole entry: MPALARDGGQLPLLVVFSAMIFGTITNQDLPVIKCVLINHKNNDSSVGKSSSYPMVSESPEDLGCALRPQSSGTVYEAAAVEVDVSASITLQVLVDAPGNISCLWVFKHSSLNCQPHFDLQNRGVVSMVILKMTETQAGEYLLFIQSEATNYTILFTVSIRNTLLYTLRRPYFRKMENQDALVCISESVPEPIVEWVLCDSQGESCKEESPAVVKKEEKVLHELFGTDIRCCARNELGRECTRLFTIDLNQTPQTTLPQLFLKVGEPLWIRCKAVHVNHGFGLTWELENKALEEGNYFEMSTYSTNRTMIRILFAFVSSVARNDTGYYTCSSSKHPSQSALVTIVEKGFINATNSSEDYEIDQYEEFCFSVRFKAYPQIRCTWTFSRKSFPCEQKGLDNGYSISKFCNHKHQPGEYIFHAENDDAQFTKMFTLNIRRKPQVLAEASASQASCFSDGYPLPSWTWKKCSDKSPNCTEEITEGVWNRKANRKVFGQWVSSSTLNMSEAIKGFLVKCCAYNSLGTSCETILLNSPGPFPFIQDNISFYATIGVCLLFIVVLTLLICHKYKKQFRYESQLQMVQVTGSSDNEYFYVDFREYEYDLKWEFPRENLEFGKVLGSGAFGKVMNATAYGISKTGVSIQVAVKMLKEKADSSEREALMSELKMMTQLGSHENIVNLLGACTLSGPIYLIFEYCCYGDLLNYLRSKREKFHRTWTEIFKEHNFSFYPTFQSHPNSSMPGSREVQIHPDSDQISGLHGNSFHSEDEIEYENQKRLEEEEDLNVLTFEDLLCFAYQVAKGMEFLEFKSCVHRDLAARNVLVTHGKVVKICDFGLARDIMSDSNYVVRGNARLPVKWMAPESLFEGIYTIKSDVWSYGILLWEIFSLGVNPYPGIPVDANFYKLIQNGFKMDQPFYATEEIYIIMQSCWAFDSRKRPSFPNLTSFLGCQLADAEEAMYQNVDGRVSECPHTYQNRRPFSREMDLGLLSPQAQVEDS
# UniProt P06241, whole entry, looked up: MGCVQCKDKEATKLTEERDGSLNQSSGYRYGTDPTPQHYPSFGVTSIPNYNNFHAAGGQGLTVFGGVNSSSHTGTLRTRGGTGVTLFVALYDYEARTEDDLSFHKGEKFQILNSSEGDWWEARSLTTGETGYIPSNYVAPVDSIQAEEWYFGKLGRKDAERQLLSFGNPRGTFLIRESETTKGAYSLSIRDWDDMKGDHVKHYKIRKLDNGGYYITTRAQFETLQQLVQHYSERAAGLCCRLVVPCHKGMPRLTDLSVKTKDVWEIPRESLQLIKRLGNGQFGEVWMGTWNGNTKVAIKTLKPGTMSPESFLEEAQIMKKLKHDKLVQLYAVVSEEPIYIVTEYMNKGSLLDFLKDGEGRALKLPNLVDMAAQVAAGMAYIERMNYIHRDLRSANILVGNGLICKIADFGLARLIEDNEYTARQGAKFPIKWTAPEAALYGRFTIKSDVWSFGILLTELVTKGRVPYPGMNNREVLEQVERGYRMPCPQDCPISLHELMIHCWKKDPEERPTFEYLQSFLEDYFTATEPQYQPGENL
# UniProt P49840: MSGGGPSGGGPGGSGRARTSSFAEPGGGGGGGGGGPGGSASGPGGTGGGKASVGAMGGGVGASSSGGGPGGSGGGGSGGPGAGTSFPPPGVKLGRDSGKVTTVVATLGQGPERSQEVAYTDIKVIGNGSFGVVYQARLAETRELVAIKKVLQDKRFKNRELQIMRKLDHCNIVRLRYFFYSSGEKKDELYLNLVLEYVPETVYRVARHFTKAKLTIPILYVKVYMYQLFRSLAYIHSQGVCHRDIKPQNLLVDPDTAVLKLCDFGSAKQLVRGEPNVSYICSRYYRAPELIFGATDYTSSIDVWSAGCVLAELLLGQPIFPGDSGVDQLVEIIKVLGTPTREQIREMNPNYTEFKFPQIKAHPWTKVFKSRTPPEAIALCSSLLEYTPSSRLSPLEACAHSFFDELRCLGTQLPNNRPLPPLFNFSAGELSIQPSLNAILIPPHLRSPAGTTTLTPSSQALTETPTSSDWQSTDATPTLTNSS
# UniProt P14616: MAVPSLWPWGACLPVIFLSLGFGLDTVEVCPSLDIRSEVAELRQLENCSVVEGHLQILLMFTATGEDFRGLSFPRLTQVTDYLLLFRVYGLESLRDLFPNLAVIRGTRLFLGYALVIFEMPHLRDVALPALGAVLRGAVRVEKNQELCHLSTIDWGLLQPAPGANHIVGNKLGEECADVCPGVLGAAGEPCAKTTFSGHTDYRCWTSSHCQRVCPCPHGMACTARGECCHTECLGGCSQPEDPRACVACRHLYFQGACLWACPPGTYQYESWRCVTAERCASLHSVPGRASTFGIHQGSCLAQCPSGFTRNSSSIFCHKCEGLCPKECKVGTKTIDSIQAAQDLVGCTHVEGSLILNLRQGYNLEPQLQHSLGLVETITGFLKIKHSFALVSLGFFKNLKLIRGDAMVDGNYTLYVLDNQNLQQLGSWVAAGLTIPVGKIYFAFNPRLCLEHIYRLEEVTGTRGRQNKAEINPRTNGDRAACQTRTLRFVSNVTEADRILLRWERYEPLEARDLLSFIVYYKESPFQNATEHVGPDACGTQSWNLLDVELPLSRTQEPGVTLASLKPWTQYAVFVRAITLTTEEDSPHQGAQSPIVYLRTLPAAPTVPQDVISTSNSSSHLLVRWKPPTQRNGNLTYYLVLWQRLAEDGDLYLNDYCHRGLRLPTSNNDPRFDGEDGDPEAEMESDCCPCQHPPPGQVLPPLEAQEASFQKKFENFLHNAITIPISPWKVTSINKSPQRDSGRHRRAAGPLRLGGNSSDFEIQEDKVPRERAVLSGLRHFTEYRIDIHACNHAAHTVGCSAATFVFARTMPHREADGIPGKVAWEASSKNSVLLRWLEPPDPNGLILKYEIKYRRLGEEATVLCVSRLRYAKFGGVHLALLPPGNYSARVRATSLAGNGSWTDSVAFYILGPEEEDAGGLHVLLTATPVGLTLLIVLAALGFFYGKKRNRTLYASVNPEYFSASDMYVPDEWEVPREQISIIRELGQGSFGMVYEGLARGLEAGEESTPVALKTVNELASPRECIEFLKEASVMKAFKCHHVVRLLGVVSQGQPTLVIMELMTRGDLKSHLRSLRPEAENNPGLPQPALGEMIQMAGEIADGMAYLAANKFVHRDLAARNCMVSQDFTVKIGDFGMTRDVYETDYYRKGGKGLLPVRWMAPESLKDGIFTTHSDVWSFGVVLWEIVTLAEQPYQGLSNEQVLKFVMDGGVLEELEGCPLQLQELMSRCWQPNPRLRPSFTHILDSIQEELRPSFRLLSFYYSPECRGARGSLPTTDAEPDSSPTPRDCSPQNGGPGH
# Structures can show the parent of a compound that is named as a salt. This is one part of the list. The calls rarely recur for the same compound in another form.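 In K562 cells expressing nanoluciferase-fused kinases, luminescence was recorded at 4 h intervals between 2 and 18 h, normalized as percent of control with DMSO at 100% and a positive control at 0%. A significant (2 sigma) signal drop marks a time point as decreased. The authors' rule for a hit is not shown and takes in more than the number of time points.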
# Key:
# Test in all cases: kinase-Nluc reporter destabilization hit call (1 = scored as downregulated) (binary); higher = compound decreases kinase abundance
# Settings in all cases: K562; 2-18 h
# ERN1 = ERN1 (UniProt O75460)
# FGFR1 = FGFR1 (UniProt P11362)
# FGFR2 = FGFR2 (UniProt P21802)
# FGFR3 = FGFR3 (UniProt P22607)
# FGR = FGR (UniProt P09769)
# FLT3 = FLT3 (UniProt P36888)
# FYN = FYN (UniProt P06241)
# GSK3A = GSK3A (UniProt P49840)
# HER2 = HER2 (UniProt P04626)
# INSRR = INSRR (UniProt P14616)
Structure (SMILES),kinase-Nluc reporter destabilization hit call (ERN1),kinase-Nluc reporter destabilization hit call (FGFR1),kinase-Nluc reporter destabilization hit call (FGFR2),kinase-Nluc reporter destabilization hit call (FGFR3),kinase-Nluc reporter destabilization hit call (FGR),kinase-Nluc reporter destabilization hit call (FLT3),kinase-Nluc reporter destabilization hit call (FYN),kinase-Nluc reporter destabilization hit call (GSK3A),kinase-Nluc reporter destabilization hit call (HER2),kinase-Nluc reporter destabilization hit call (INSRR)
C[C@@H](c1ccc(-c2ccccc2)c(F)c1)c1cc(NC(=N)N2CCOCC2)on1 [Rimacalib] (10 µM),inactive: 0,inactive: 0,inactive: 0,inactive: 0,inactive: 0,inactive: 0,inactive: 0,inactive: 0,inactive: 0,inactive: 0
c1ccc(-c2[nH]ncc2-c2ccnc3ccccc23)nc1 (10 µM),inactive: 0,inactive: 0,inactive: 0,inactive: 0,inactive: 0,inactive: 0,inactive: 0,inactive: 0,inactive: 0,inactive: 0
CCCCCCCCCCCCC/C=C/[C@@H](O)[C@@H](N)CO [D-erythro-Sphingosine] (2.5 µM),inactive: 0,inactive: 0,inactive: 0,inactive: 0,inactive: 0,inactive: 0,inactive: 0,inactive: 0,inactive: 0,inactive: 0
CC(C)(O)CNc1ncc(-c2ccnc(Nc3ccnc(Cl)c3)n2)c(CC2CC2)n1 (2.5 µM),inactive: 0,inactive: 0,inactive: 0,inactive: 0,inactive: 0,inactive: 0,inactive: 0,inactive: 0,inactive: 0,inactive: 0
COc1cc2ncnc(Nc3ccc(Cl)cc3F)c2cc1OC (10 µM),inactive: 0,inactive: 0,inactive: 0,inactive: 0,inactive: 0,inactive: 0,inactive: 0,inactive: 0,inactive: 0,inactive: 0
Cc1ccccc1-c1c2nccc(-c3ccc(F)cc3F)c2cc[n+]1[O-] (10 µM),inactive: 0,inactive: 0,inactive: 0,inactive: 0,inactive: 0,inactive: 0,inactive: 0,inactive: 0,inactive: 0,inactive: 0
NC(=O)c1ccc(-c2nc(-c3ccc4c(c3)OCCO4)c(-c3ccccn3)[nH]2)cc1 (10 µM),inactive: 0,inactive: 0,inactive: 0,inactive: 0,inactive: 0,inactive: 0,active: 1,inactive: 0,inactive: 0,inactive: 0
O=C(NCCN1CCOCC1)c1cc2c(Oc3ccc(NC(=O)C4(C(=O)Nc5ccc(F)cc5)CC4)cc3)ccnc2[nH]1 [Tyrosine kinase inhibitor] (10 µM),inactive: 0,inactive: 0,inactive: 0,inactive: 0,inactive: 0,inactive: 0,inactive: 0,inactive: 0,inactive: 0,inactive: 0
CCc1cc2c(cc1N1CCC(N3CCOCC3)CC1)C(C)(C)c1[nH]c3cc(C#N)ccc3c1C2=O [Alectinib] (10 µM),inactive: 0,inactive: 0,inactive: 0,inactive: 0,inactive: 0,inactive: 0,inactive: 0,inactive: 0,inactive: 0,inactive: 0
Cc1nc(-c2cn3c(n2)-c2ccc(-c4cnn(C(C)(C)C(N)=O)c4)cc2OCC3)n(C(C)C)n1 [Taselisib] (10 µM),inactive: 0,inactive: 0,inactive: 0,inactive: 0,inactive: 0,inactive: 0,inactive: 0,inactive: 0,inactive: 0,inactive: 0
COc1cc(OC2CCN(C)CC2)ccc1Nc1ncc2c(n1)n(C1CCCC1)c(=O)n2C (10 µM),inactive: 0,inactive: 0,inactive: 0,inactive: 0,inactive: 0,inactive: 0,inactive: 0,inactive: 0,inactive: 0,inactive: 0
C[C@@H]1CCN(C(=O)CC#N)C[C@@H]1N(C)c1ncnc2[nH]ccc12 [Tofacitinib (citrate)] (10 µM),inactive: 0,inactive: 0,inactive: 0,inactive: 0,inactive: 0,inactive: 0,inactive: 0,inactive: 0,inactive: 0,inactive: 0
C=CC(=O)Nc1cc(C)ccc1Nc1nc(Nc2cc(OC)ncc2C)ncc1C(F)(F)F (10 µM),inactive: 0,inactive: 0,inactive: 0,inactive: 0,inactive: 0,inactive: 0,inactive: 0,inactive: 0,inactive: 0,inactive: 0
c1cc(-c2c[nH]c3nccc(N4CCC[C@@]5(CCCCN5)C4)c23)ncn1 (10 µM),inactive: 0,inactive: 0,inactive: 0,inactive: 0,inactive: 0,inactive: 0,inactive: 0,inactive: 0,inactive: 0,inactive: 0
CCN1CCC(n2cc(CNc3cc(Cl)c4ncc(C#N)c(Nc5ccc(F)c(Cl)c5)c4c3)nn2)CC1 [Cot inhibitor-2] (2.5 µM),inactive: 0,inactive: 0,inactive: 0,inactive: 0,inactive: 0,inactive: 0,inactive: 0,inactive: 0,inactive: 0,inactive: 0
Cn1cnc2c(F)c(Nc3ccc(Br)cc3Cl)c(C(=O)NOCCO)cc21 [Selumetinib] (10 µM),inactive: 0,inactive: 0,inactive: 0,inactive: 0,inactive: 0,inactive: 0,inactive: 0,inactive: 0,inactive: 0,inactive: 0
COc1cc2nccc(Oc3ccc(NC(=O)NC4CC4)c(Cl)c3)c2cc1C(N)=O [Lenvatinib (mesylate)] (10 µM),inactive: 0,inactive: 0,inactive: 0,inactive: 0,inactive: 0,inactive: 0,inactive: 0,inactive: 0,inactive: 0,inactive: 0
Cc1cc(=O)oc2c(C=O)c(O)ccc12 (10 µM),inactive: 0,inactive: 0,inactive: 0,inactive: 0,inactive: 0,inactive: 0,inactive: 0,inactive: 0,inactive: 0,inactive: 0
Oc1cc(O)c2cc(O)c(-c3cc(O)c(O)c(O)c3)[o+]c2c1 [Delphinidin (chloride)] (10 µM),inactive: 0,inactive: 0,inactive: 0,inactive: 0,inactive: 0,inactive: 0,inactive: 0,inactive: 0,inactive: 0,inactive: 0
NCCNS(=O)(=O)c1cccc2c(Cl)cccc12 [A-3 (hydrochloride)] (10 µM),inactive: 0,inactive: 0,inactive: 0,inactive: 0,inactive: 0,inactive: 0,inactive: 0,inactive: 0,inactive: 0,inactive: 0
Cc1cccc(Oc2cnc(=O)[nH]c2)c1 [Tolimidone] (10 µM),inactive: 0,inactive: 0,inactive: 0,inactive: 0,inactive: 0,inactive: 0,inactive: 0,inactive: 0,inactive: 0,inactive: 0
Cc1ccc(C(=O)Nc2ccc(Oc3cc4cnn(C)c4cc3-c3cn[nH]c3)c(F)c2)c(=O)n1-c1ccc(F)cc1 [Merestinib] (2.5 µM),inactive: 0,inactive: 0,inactive: 0,inactive: 0,inactive: 0,inactive: 0,inactive: 0,inactive: 0,inactive: 0,inactive: 0
CN1CCN(c2cnc3c(C4CCN(C(=O)c5ccc(OC(F)(F)F)cc5N)CC4)ncnc3c2)CC1 (10 µM),inactive: 0,inactive: 0,inactive: 0,inactive: 0,inactive: 0,inactive: 0,inactive: 0,inactive: 0,inactive: 0,inactive: 0
COc1ccc2c(OCc3nnc4ccc(-c5ccccc5)nn34)ccnc2c1 (2 µM),inactive: 0,inactive: 0,inactive: 0,inactive: 0,inactive: 0,inactive: 0,inactive: 0,inactive: 0,inactive: 0,inactive: 0
Cc1ccc(OCCSc2ncccn2)c(Br)c1 [ZLN024 (hydrochloride)] (10 µM),inactive: 0,inactive: 0,inactive: 0,inactive: 0,inactive: 0,inactive: 0,inactive: 0,inactive: 0,inactive: 0,inactive: 0
FC(F)c1nc2ccccc2n1-c1nc(N2CCOCC2)nc(N2CCOCC2)n1 (2 µM),inactive: 0,inactive: 0,inactive: 0,inactive: 0,inactive: 0,inactive: 0,inactive: 0,inactive: 0,inactive: 0,inactive: 0
O=C1Nc2ccc(C(=O)c3ccco3)cc2C1=Cc1cc(Cl)c(O)c(Cl)c1 (2.5 µM),inactive: 0,inactive: 0,inactive: 0,inactive: 0,inactive: 0,inactive: 0,inactive: 0,inactive: 0,inactive: 0,inactive: 0
COCCNc1nc2ccc(C#CC3(O)CCCCC3)cc2n1-c1ccnc(N)n1 (10 µM),inactive: 0,inactive: 0,inactive: 0,inactive: 0,inactive: 0,inactive: 0,inactive: 0,inactive: 0,inactive: 0,inactive: 0
CCC(C)N1c2ccccc2C(=O)N(C)c2cnc(Nc3ccc(C(=O)N4CCC(N5CCN(C)CC5)CC4)cc3OC)nc21 (stereo not given) (2.5 µM),inactive: 0,inactive: 0,inactive: 0,inactive: 0,inactive: 0,inactive: 0,inactive: 0,inactive: 0,inactive: 0,inactive: 0

# Nothing new here: seven of the compounds above.
Structure (SMILES),kinase-Nluc reporter destabilization hit call (ERN1),kinase-Nluc reporter destabilization hit call (FGFR1),kinase-Nluc reporter destabilization hit call (FGFR2),kinase-Nluc reporter destabilization hit call (FGFR3),kinase-Nluc reporter destabilization hit call (FGR),kinase-Nluc reporter destabilization hit call (FLT3),kinase-Nluc reporter destabilization hit call (FYN),kinase-Nluc reporter destabilization hit call (GSK3A),kinase-Nluc reporter destabilization hit call (HER2),kinase-Nluc reporter destabilization hit call (INSRR)
C[C@@H]1CCN(C(=O)CC#N)C[C@@H]1N(C)c1ncnc2[nH]ccc12 [Tofacitinib (citrate)] (10 µM),inactive: 0,inactive: 0,inactive: 0,inactive: 0,inactive: 0,inactive: 0,inactive: 0,inactive: 0,inactive: 0,inactive: 0
C=CC(=O)Nc1cc(C)ccc1Nc1nc(Nc2cc(OC)ncc2C)ncc1C(F)(F)F (10 µM),inactive: 0,inactive: 0,inactive: 0,inactive: 0,inactive: 0,inactive: 0,inactive: 0,inactive: 0,inactive: 0,inactive: 0
c1cc(-c2c[nH]c3nccc(N4CCC[C@@]5(CCCCN5)C4)c23)ncn1 (10 µM),inactive: 0,inactive: 0,inactive: 0,inactive: 0,inactive: 0,inactive: 0,inactive: 0,inactive: 0,inactive: 0,inactive: 0
CCN1CCC(n2cc(CNc3cc(Cl)c4ncc(C#N)c(Nc5ccc(F)c(Cl)c5)c4c3)nn2)CC1 [Cot inhibitor-2] (2.5 µM),inactive: 0,inactive: 0,inactive: 0,inactive: 0,inactive: 0,inactive: 0,inactive: 0,inactive: 0,inactive: 0,inactive: 0
Cn1cnc2c(F)c(Nc3ccc(Br)cc3Cl)c(C(=O)NOCCO)cc21 [Selumetinib] (10 µM),inactive: 0,inactive: 0,inactive: 0,inactive: 0,inactive: 0,inactive: 0,inactive: 0,inactive: 0,inactive: 0,inactive: 0
COc1cc2nccc(Oc3ccc(NC(=O)NC4CC4)c(Cl)c3)c2cc1C(N)=O [Lenvatinib (mesylate)] (10 µM),inactive: 0,inactive: 0,inactive: 0,inactive: 0,inactive: 0,inactive: 0,inactive: 0,inactive: 0,inactive: 0,inactive: 0
Cc1cc(=O)oc2c(C=O)c(O)ccc12 (10 µM),inactive: 0,inactive: 0,inactive: 0,inactive: 0,inactive: 0,inactive: 0,inactive: 0,inactive: 0,inactive: 0,inactive: 0
